{"source": "PubChem BioAssay AID504444", "about": "(National Center for Advancing Translational Sciences (NCATS), 2011)", "note": "Screen size: about 360,000 compounds; about 7,500 (2.1%) were called active. The shares of active, inactive and inconclusive entries below differ from those in the screen. Calls follow the shape of the dose curve; as a rule, active = well fitted inhibition curve with a large enough effect; inconclusive = small, poorly fitted or top-dose-only effect, or effect the other way; inactive = flat fitted curve, though single readings scatter. Potencies beside an inconclusive call are fits to weak or partial responses and may not hold up. Potency is read from the fitted curve at half-maximal effect."}
{"test": "Nrf2 qHTS screen for inhibitors; also: nearly all actives have a fitted effect of over 60% in size", "settings": "A549 ARE-Fluc reporter, luciferase luminescence, 18-24 h; series mostly up to 46 µM", "how_it_was_run": "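Concentration-response testing used A549 ARE_Fluc cells at 5000 cells/well. Following an 18-24 h compound incubation, viability was read by fluorescence (Ex 405/Em 525) and luciferase output by luminescence.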"}
{"smiles": "C=CCn1c(CSCc2ccc(F)cc2)n[nH]c1=S", "Potency": "inconclusive: 29.1 µM [falling, single point]"}
{"smiles": "Cc1cccc(-c2cc3c(N=O)c4ccccc4c-3n[nH]2)c1", "Potency": "inconclusive: 23.1 µM [activator, partial curve]"}
{"smiles": "Cc1cccc(/C=C/c2nc3ccccc3c(=O)[nH]2)c1", "Potency": "inconclusive: 23.1 µM [activator, single point]"}
{"smiles": "O=C(NCc1ccc(Cl)cc1)N1CCN(S(=O)(=O)c2ccccc2)CC1", "Potency": "inconclusive: 14.6 µM [falling, single point]"}
{"smiles": "O=C(O)c1ccc(S(=O)(=O)c2ccc3c(c2)C(=O)N(c2ccc(Br)cc2)C3=O)cc1", "Potency": "inconclusive: 23.1 µM [activator, partial curve, poor fit]"}
{"smiles": "CCNc1ccc(S(=O)(=O)N(C)C)cc1NCC(=O)Nc1ccc(Br)cc1F", "Potency": "inconclusive: 23.1 µM [falling, single point]"}
{"smiles": "O=C(COc1ccc(Cl)cc1Cl)NCc1ccco1", "Potency": "inactive"}
{"smiles": "COc1ccc(CCN2C(=O)CSC2=Nc2ccc(C(C)C)cc2)cc1OC", "Potency": "active: 16.4 µM"}
{"smiles": "CSC[C@H](NC(=O)COc1cc2c(c3oc(=O)c(C)c(C)c13)CCC(C)(C)O2)C(=O)O", "Potency": "inactive"}
{"smiles": "COc1ccc(N/C=C(\\[N+](=O)[O-])S(=O)(=O)c2ccccc2)cc1", "Potency": "inconclusive: 0.0065 µM [falling, full curve, poor fit]"}
{"smiles": "Cc1cccc(-c2nnc(-c3cccc(NC(=O)Cc4cccs4)c3)o2)c1", "Potency": "active: 20.6 µM"}
{"smiles": "COc1ccc(OC)c(S(=O)(=O)NCCc2csc(-c3cccnc3)n2)c1", "Potency": "inactive"}
{"smiles": "CC(=O)N1c2ccc(S(=O)(=O)N3CCC(C(=O)N4CCC(C)CC4)CC3)cc2CC1C", "note": "(stereo not given)", "Potency": "inconclusive: 16.4 µM [falling, partial curve, poor fit]"}
{"smiles": "NS(=O)(=O)c1ccc(Nc2nc(-c3ccc(F)cc3)cs2)cc1", "Potency": "inconclusive: 0.651 µM [falling, partial curve, poor fit]"}
{"smiles": "CCc1ccc(Nc2n[n+](-c3ccccc3)c(-c3cc(OC)c(OC)cc3Br)s2)cc1", "Potency": "inactive"}
{"smiles": "CCOC(=O)c1cc2sc(C)cc2n1CC(=O)NCc1ccc(F)cc1", "Potency": "inconclusive: 25.9 µM [falling, single point]"}
{"smiles": "Cc1cccc2nc(-c3cccc(NC(=O)Cc4ccccc4)c3)cn12", "Potency": "inactive"}
{"smiles": "CCCCn1c(N)c(N(CCOC)C(=O)c2cccc(-n3cnnn3)c2)c(=O)[nH]c1=O", "Potency": "inconclusive: 29.1 µM [activator, single point]"}
{"smiles": "CCCOc1ccc(CCCN=C(N)N)cc1Cl", "Potency": "inconclusive: 29.1 µM [falling, single point]"}
{"smiles": "CCn1c(CN2CCN(c3ccc(Cl)cc3)CC2)nc2ccccc21", "Potency": "inconclusive: 0.206 µM [activator, full curve]"}
{"smiles": "CSc1ccccc1N=Cc1nc(-c2ccccc2)oc1O", "Potency": "inconclusive: 0.164 µM [activator, full curve, poor fit]"}
{"smiles": "CCNc1nc(C#N)nc(N2CCOCC2)n1", "Potency": "active: 16.4 µM"}
{"smiles": "Cc1c(C(=O)N2CCC(C)CC2)sc2ncnc(N(C)c3ccccc3)c12", "Potency": "active: 18.4 µM"}
{"smiles": "COC(=O)c1ccc(NN=Nc2ccc(C)cc2)cc1", "Potency": "inconclusive: 0.651 µM [activator, full curve]"}
{"smiles": "COc1ccc(NC(=O)CCC2CCCCC2)cc1S(=O)(=O)N1CCCCC1", "Potency": "inconclusive: 29.1 µM [falling, single point]"}
{"smiles": "CC(C)CC(NC(N)=O)C(=O)NCCc1ccc(Cl)cc1", "note": "(stereo not given)", "Potency": "inconclusive: 29.1 µM [falling, single point]"}
{"smiles": "O=[N+]([O-])c1ccc([N+](=O)[O-])c(Nc2ccc(N3CCOCC3)cc2)c1", "Potency": "inconclusive: 2.06 µM [falling, full curve]"}
{"smiles": "Cc1ccc(-c2cn3c(n2)sc2cc(C(=O)NCCCN4CCCCCC4)ccc23)cc1", "Potency": "inactive"}
{"smiles": "Cc1cc(=O)c2cc(Br)ccc2[nH]1", "Potency": "inconclusive: 18.4 µM [falling, single point]"}
{"smiles": "CC1=NN(C(N)=S)C(=O)C1N=Nc1cccc([N+](=O)[O-])c1", "note": "(stereo not given)", "Potency": "inconclusive: 2.91 µM [activator, partial curve]"}
{"smiles": "Nc1nc(NCc2ccco2)nc(N2CCOCC2)c1[N+](=O)[O-]", "Potency": "inconclusive: 32.6 µM [falling, partial curve, poor fit]"}
{"smiles": "COc1ccccc1-n1c(=S)sc2c(=O)n(Cc3ccco3)c(SC)nc21", "Potency": "active: 8.2 µM"}
{"smiles": "CC(=O)N1c2ccc(S(=O)(=O)N3CCCCC3)cc2CC1C", "note": "(stereo not given)", "Potency": "inconclusive: 18.4 µM [falling, partial curve, poor fit]"}
{"smiles": "CC1CCCC(NC(=O)COC(=O)c2ccc3ncsc3c2)C1C", "note": "(stereo not given)", "Potency": "inconclusive: 18.4 µM [activator, partial curve]"}
{"smiles": "O=C(O)CCCc1ccc2ccc3cccc4ccc1c2c34", "Potency": "inconclusive: 32.6 µM [falling, partial curve, poor fit]"}
{"smiles": "COc1ccc(C(C(=O)NC2CCCCC2)N(C(=O)CCl)c2ccc(C)cc2)cc1", "note": "(stereo not given)", "Potency": "inconclusive: 16.4 µM [falling, partial curve, poor fit]"}
{"smiles": "CCCN(CCC)C(=O)c1cc2c(=O)n3cccc(C)c3nc2s1", "Potency": "inconclusive: 1.84 µM [falling, partial curve]"}
{"smiles": "CCCCNC(=O)c1cc2cccc([N+](=O)[O-])c2[nH]1", "Potency": "inconclusive: 9.2 µM [activator, partial curve, poor fit]"}
{"smiles": "Cc1cccc2c1ncc1c(=O)n(-c3ccccc3)[nH]c12", "Potency": "inconclusive: 9.2 µM [activator, partial curve]"}
{"smiles": "CC(C)NC(=O)C(=O)NCCN1CCN(C(=O)c2ccc(C(C)(C)C)cc2)CC1", "Potency": "inconclusive: 0.0092 µM [falling, full curve, poor fit]"}
{"smiles": "CC(=O)c1cccc(NC(=O)C2CCN(c3ncnc4c3nc3n4CCCCC3)CC2)c1", "Potency": "inconclusive: 6.51 µM [falling, partial curve, poor fit]"}
{"smiles": "O=C(NC1CCCCC1)C(c1ccncc1)N(Cc1ccccc1)C(=O)c1ccc(-c2ccccc2)[nH]1", "note": "(stereo not given)", "Potency": "inconclusive: 9.2 µM [falling, partial curve, poor fit]"}
{"smiles": "COc1ccc(-c2noc(-c3cccnc3)n2)cc1OC", "Potency": "inconclusive: 20.6 µM [activator, partial curve]"}
{"smiles": "Cc1ccc(-c2csc3ncn(CC(N)=O)c(=O)c23)cc1C", "Potency": "inconclusive: 23.1 µM [falling, single point]"}
{"smiles": "CC(C(=O)N(C)C1CCS(=O)(=O)C1)N1C(=O)/C(=C/c2ccc(F)cc2)SC1=S", "note": "(stereo not given)", "Potency": "inconclusive: 23.1 µM [activator, partial curve, poor fit]"}
{"smiles": "CC(=O)N1CCN(c2ccc(Oc3nnnn3-c3ccccc3)cc2)CC1", "Potency": "inconclusive: 29.1 µM [falling, single point]"}
{"smiles": "COc1ccc2c(C)c(CC(=O)NCCc3ccc(Cl)cc3)c(=O)oc2c1C", "Potency": "inconclusive: 0.0046 µM [activator, full curve, poor fit]"}
{"smiles": "O=C1CCCC2=C1C(c1ccco1)Nc1ccc3ccccc3c12", "note": "(stereo not given)", "Potency": "inactive"}
{"smiles": "CCCCOc1ccc(/C(N)=N/O)cc1", "Potency": "inconclusive: 20.6 µM [activator, partial curve]"}
{"smiles": "Fc1ccc(/C=C2\\CCCC3=C2Nc2ncnn2C3c2ccc(F)cc2)cc1", "note": "(stereo not given)", "Potency": "inconclusive: 16.4 µM [falling, partial curve, poor fit]"}
{"smiles": "O=c1[nH]cnc(O)c1C(c1ccc2c(c1)OCO2)c1c(O)nc[nH]c1=O", "Potency": "inactive"}
{"smiles": "O=C(OCc1ccc(O)cc1)c1c(-c2ccsc2)oc2ccc(N3CCOCC3)cc12", "Potency": "inconclusive: 4.11 µM [falling, partial curve, poor fit]"}
{"smiles": "COc1ccccc1NC(=O)c1cc2c(=O)n(C)c3ccccc3c2n1C", "Potency": "inconclusive: 7.31 µM [falling, partial curve, poor fit]"}
{"smiles": "COC(=O)CCc1sc(Nc2ccc(Br)cc2)nc1-c1ccc(OC)cc1", "Potency": "inconclusive: 20.6 µM [falling, partial curve]"}
{"smiles": "CCn1cnc2sc(-c3ccccc3)cc2c1=O", "Potency": "inconclusive: 10.3 µM [activator, partial curve]"}
{"smiles": "O=C(NCc1ccccc1)c1cc2ccccc2oc1=O", "Potency": "inactive"}
{"smiles": "CCN1CCc2c(sc(NC(=S)NC(=O)c3cccc(F)c3)c2C(N)=O)C1", "Potency": "inconclusive: 14.6 µM [activator, partial curve, poor fit]"}
{"smiles": "CC(=O)N1CCN(c2ccc(NCc3ccco3)cc2)CC1", "Potency": "inconclusive: 32.6 µM [falling, partial curve, poor fit]"}
{"smiles": "COc1ccc(C[C@H]2CN3C(=NC[C@@H]3C(C)C)N2CCNC(=O)CCC2CCCCC2)cc1", "Potency": "inconclusive: 20.6 µM [activator, partial curve]"}
{"smiles": "S=C(c1ccc(-c2cccc(Cl)c2)o1)N1CCCCC1", "Potency": "inconclusive: 5.17 µM [activator, partial curve]"}
{"smiles": "CCOc1ccccc1NC(=O)COc1ccc2c(c1)OCO2", "Potency": "inconclusive: 25.9 µM [activator, single point]"}
{"smiles": "CN1CCN(Cc2nc3ccccc3c(=O)n2Cc2nc(-c3ccc([N+](=O)[O-])cc3)cs2)CC1", "Potency": "inactive"}
{"smiles": "COc1cccc(Cn2c(SCC(=O)N3CCN(c4ccc(F)cc4)CC3)nc3ccccc32)c1", "Potency": "inconclusive: 6.51 µM [falling, full curve]"}
{"smiles": "CCOC(=O)Cc1csc(NC(=O)c2cccc(Cl)c2)n1", "Potency": "inconclusive: 29.1 µM [falling, partial curve, poor fit]"}
{"smiles": "NNC(=O)c1cccc(COc2ccc(Br)cc2)c1", "Potency": "inconclusive: 1.64 µM [activator, partial curve]"}
